Data reported in patent US20180118841A1.
Results are given in words; binding and its absence hold for the method and conditions named. Some results given as binding are weak or reduced against the parent protein; the word gives no strength.

Protein sequences, listed by entry. Tags and fused reporters are not part of them. Lines headed by an entry give the natural chain unless they say otherwise; changes in a name come on top.
UniProt A9YYE7: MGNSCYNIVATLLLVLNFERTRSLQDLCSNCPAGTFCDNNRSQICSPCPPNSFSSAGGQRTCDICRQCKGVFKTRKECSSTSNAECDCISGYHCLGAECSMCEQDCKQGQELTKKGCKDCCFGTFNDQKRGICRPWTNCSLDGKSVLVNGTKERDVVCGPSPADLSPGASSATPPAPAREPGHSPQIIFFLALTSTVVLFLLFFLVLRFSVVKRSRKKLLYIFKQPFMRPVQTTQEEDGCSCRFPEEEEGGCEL
UniProt P25942: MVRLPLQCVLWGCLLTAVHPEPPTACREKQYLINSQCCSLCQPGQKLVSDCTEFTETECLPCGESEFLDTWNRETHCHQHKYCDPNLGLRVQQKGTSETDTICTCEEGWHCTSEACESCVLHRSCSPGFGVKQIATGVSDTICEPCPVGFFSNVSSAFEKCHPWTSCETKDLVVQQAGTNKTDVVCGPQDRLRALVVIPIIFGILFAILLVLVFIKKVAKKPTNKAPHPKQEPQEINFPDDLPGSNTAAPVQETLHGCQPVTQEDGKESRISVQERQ

What was measured:
[1] = molecular target: T1, cynomolgus CD137 over-expressed on CHO cells (extracellular part fused to transmembrane and intracellular part of hCD40) (cynomolgus (Macaca fascicularis); human) (UniProt A9YYE7+P25942); assay: flow cytometry, CHO-cyCD137
[2] = molecular target: T1, cynomolgus CD137 over-expressed on CHO cells (extracellular part fused to transmembrane and intracellular part of hCD40) (cynomolgus (Macaca fascicularis); human); assay: Cynomolgus CD137 cross-reactivity (summary table)

B1: anti-CD137 antibody 1618/1619 (antibody, IgG1, V domains shown)
VH: EVQLLESGGGLVQPGGSLRLSCAASGFTFSYGSMYWVRQAPGKGLEWVSSISSGSGSTYYADSVKGRFTISRDNSKNTLYLQMNSLRAEDTAVYYCARSSYYGSYYSIDYWGQGTLVTVSS
VL: DIQMTQSPSSLSASVGDRVTITCRASQSISSYLNWYQQKPGKAPKLLIYAASSLQSGVPSRFSGSGSGTDFTLTISSLQPEDFATYYCQQYYDNLPTFGQGTKLEIK
binding [1]: binds | binding [2]: binds
